This note sets out measurements from the supplement of paper PMC12873370.

“And” between values parts separate entries of the source, which are not always exact repeats. Equal values may be shown once. The list shows a part of the results. Repeats are few or missing, and single values can be far off.

This assay has as its system MEPP (mouse ovarian epithelium Trp53/Pten KO). The assay can be described thus: cell viability relative to untreated (fraction); higher = less growth inhibition. As to conditions: 5 µM; 3 days.
`O=[N+]([O-])C(Br)(CO)CO`: the cell viability is 0.835.

Compound `C[C@]12CC[C@@H](O)C[C@@H]1CC[C@@H]1[C@@H]2CC[C@]2(C)C(=O)CC[C@@H]12` registered a cell viability of 0.977.

As for `CC1=CC(=O)c2c(O)cccc2C1=O`, the cell viability was determined as 0.938.

Regarding `CN1[C@@H]2CC[C@H]1C[C@@H](OC(=O)C(CO)c1ccccc1)C2` (some centres not stated), the cell viability was 1.06 and 0.903 and 1.11. With `O=C(O)Cc1cnc[nH]1` the figure was 0.824. For `Cc1ccccc1O` the value was 1.17. With `O=c1ccc2ccc3occc3c2o1` the figure was 1.09. Consider `C[C@@H]1CC[C@@]2(OC1)O[C@H]1C[C@H]3[C@@H]4CC=C5C[C@@H](O[C@@H]6O[C@H](CO)[C@@H](O[C@@H]7O[C@@H](C)[C@H](O)[C@@H](O)[C@H]7O)[C@H](O)[C@H]6O[C@@H]6O[C@@H](C)[C@H](O)[C@@H](O)[C@H]6O)CC[C@]5(C)[C@H]4CC[C@]3(C)[C@H]1[C@@H]2C`, for which the cell viability was determined as 0.624. For `CC[C@@]1([C@H]2O[C@H]([C@H]3O[C@@](O)(CO)[C@H](C)C[C@@H]3C)C[C@H]2C)CC[C@H]([C@@]2(C)CC[C@]3(C[C@H](O)[C@@H](C)[C@@H]([C@H](C)[C@H](OC)[C@@H](C)C(=O)O)O3)O2)O1` the value was 0.597; for `C[C@]12CC[C@H](O)CC1=CC[C@@H]1[C@@H]2CC[C@]2(C)C(=O)CC[C@@H]12`, 0.931; for `COC[C@]12CN(C)[C@@H]3[C@@H]4[C@H](OC)[C@H]1[C@@]3([C@@H](OC)C[C@H]2O)[C@@H]1C[C@@]2(O)[C@H](OC(=O)c3ccccc3)[C@@H]1[C@]4(OC(C)=O)[C@@H](O)[C@@H]2OC`, 1.34. The compound `CCC1=CC2CN3CCc4c([nH]c5ccccc45)C(C(=O)OC)(C2)C13` (configuration not stated) came in with a cell viability of 0.892.
